# Laboratory results from the supplement of paper PMC10338343.
# ± gives the standard deviation. This is a selection; strong and weak results do not stand in their true shares. The uncertainty is large for many entries.
# How the values were obtained:
# [1] = tested on: MILI (PIWIL2) piRISC loaded with piRNA #1 (26 nt); test: pre-steady-state target cleavage rate (min^-1); MIWI and MILI are mouse PIWI proteins and EfPiwi is from a freshwater sponge; tags in brackets are library labels; higher = faster piRNA-guided slicing of the target; settings: guide: piRNA #1 5'p-UGAGGUAGUAGGUUGUAUAGUAUCCA; auxiliary factor: 500 nM mouse GTSF1
# Method in brief: (§1)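 The method was Cleave-'n-Seq, in which uncleaved targets from a transcribed, DNA-blocked target RNA library were sequenced after exposure to active affinity-purified piRISC carrying one synthetic guide, with or without GTSF1 partner protein. Reactions contained 0.1 nM library, 1 nM piRISC and, where present, 500 nM GTSF1 in HEPES–potassium acetate buffer at 33 °C for 0–8 or 0–960 min. Reads were normalised to depth and to weakly complementary targets, three trials were pooled, and k3 was capped at 0.0001 min^-1. The pre-steady-state cleavage rate came from a burst-and-steady-state fit.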
# [2] = tested on: MIWI (PIWIL1) piRISC loaded with piRNA #1 (30 nt); test: as above; settings: guide: piRNA #1 5'p-UGAGGUAGUAGGUUGUAUAGUAUCCAGAGG; auxiliary factor: 500 nM mouse GTSF1
# Method in brief: as §1
Sequence,pre-steady-state target cleavage rate [1],pre-steady-state target cleavage rate [2]
GGAGACGAUACUAUACAACGUACAACCUCA,0.0345 ± 0.0071,–
GGAGACCUAUGUUUACAACCUUCUACCUCA,0.00358 ± 0.0029,–
GGAGACCUAUGAUAUGUACCUACGUACCUCA,0.000499 ± 0.011,–
GGAGACGAUACUAUACAACCUAGAACCUCA,0.0145 ± 0.0064,–
GGAGACCAUACUAUACACACCUACUACCUCA,0.00242 ± 0.0055,–
GGAGACCUAUGAUAUGUACCUACUUGCUCA,< 0.0001,–
GGAGACCUAUGAUAUCUACCUACUACCUGA,< 0.0001,–
GGAGUAGGAUACUAUACAACCUACUACCUCA,0.145 ± 0.016,–
GGAGACCAUACUAUACAACCUAAUACCUCA,0.117 ± 0.018,–
GGAGACCUUACUUAUCAACCUACUACCUCA,0.0518 ± 0.014,–
GGAGAGGAUACUAUACAACCUACUGACCUCA,0.077 ± 0.013,–
GGAGACCUUACUAUACGAACCUACUACCUCA,0.000356 ± 0.021,–
GGAGACCUAUCUAUACAACCUACUACCUUCA,0.139 ± 0.017,–
GGAGACCUAUGAUUACAACCUACUAGCACA,0.0011 ± 0.0055,–
GGAGACCUUACAAUACAACCUAGUACCUCA,0.043 ± 0.013,–
GGAGACCUAUCUAUAGAACCUACUACCUGA,0.00618 ± 0.0029,–
GGAGACCUAUGAAUACAACCUACUAGCUGA,0.000867 ± 0.0072,0.000295 ± 0.0076
GGAGACCUAUGAUAACAACCUACUACUCA,0.000448 ± 0.012,0.000217 ± 0.012
GGAGACCUAUGAUUACAACCUACUAGCUGA,0.000809 ± 0.0065,0.000121 ± 0.016
GGAGACCUAUGAUUACAACCAACAACCUCA,0.00249 ± 0.0038,0.000665 ± 0.0052

Sequence,pre-steady-state target cleavage rate [1],pre-steady-state target cleavage rate [2]
GGAGACCUAUGAAUACAACCUACAUCCUCA,0.00241 ± 0.0029,0.00126 ± 0.0037
GGAGACCUAUGAUUACAAACCUACUACCUCA,0.000924 ± 0.0038,0.000167 ± 0.013
GGAGACCUAUGAUUACAACCUACUUCCACA,0.00187 ± 0.0038,0.000476 ± 0.0043
GGAGACCUAUGAUAUGUACCCACUACCUCA,0.000318 ± 0.011,0.00023 ± 0.015
GGAGACCUAACUAUACAACUACUACCUCA,0.00399 ± 0.005,0.00165 ± 0.0075
GGAGUGGAUACUAUACACACCUACUACCUCA,0.00125 ± 0.0053,0.000341 ± 0.019
GGAGACCUAUGAAUACAACCUUCAACCUCA,0.00213 ± 0.0027,0.000253 ± 0.0079
GGAGACCUAUGAAUACAAGCUUCUACCUCA,0.0038 ± 0.002,0.000805 ± 0.0039
GGAGACCUAUGAUAACAACGUACAACCUCA,0.00292 ± 0.0034,0.000129 ± 0.021
GGAGACCUAUGAUAUGUUCCAACUACCUGA,0.000228 ± 0.012,0.000304 ± 0.012
GGAGACCUAUCUAUACAUACCUACUACCUCA,0.00118 ± 0.0072,0.000696 ± 0.011
GGAGACCUAUGAUUACAACCUACUACUCA,0.000869 ± 0.0057,0.000242 ± 0.009
GGAGACCUAUGAUAACAACCAACAACCUCA,0.00208 ± 0.0039,0.000456 ± 0.0059
GGAGACCUAUGAAUUCAACCAACUACCUCA,0.00123 ± 0.0045,0.00012 ± 0.019
GGAGACCUAUGAUAUGUACCUUACUACCUCA,0.000898 ± 0.0049,0.000309 ± 0.0064
GGAGACCUAUGAUUACCACCUACUACCUCA,0.00294 ± 0.0032,0.000461 ± 0.0065
GGAGACCUAUGAUAACAACCUAGUACGUCA,0.000198 ± 0.03,0.000203 ± 0.0096
GGAGACCUAUGAAUACAAGCCUACUACCUCA,0.00045 ± 0.015,0.000165 ± 0.011
GGAGACCUAUGAUAUGUUGGUACAACCUCA,0.000344 ± 0.0086,0.00034 ± 0.0084
GGAGACCUAUGUAUACAACGUUCUACCUCA,0.00392 ± 0.0018,0.00134 ± 0.0031

Sequence,pre-steady-state target cleavage rate [1],pre-steady-state target cleavage rate [2]
GGAGACCUAUGAAUACAAGGAACUACCUCA,0.000923 ± 0.0074,0.000124 ± 0.02
GGAGACCUAUGAUAAUAACCUACUACCUCA,0.00265 ± 0.0028,0.000812 ± 0.0052
GGAGACCUAUGUAUACAAGGAACUACCUCA,0.00296 ± 0.0028,0.000244 ± 0.0079
GGAGACCUAUGAUAUCAACGUACUACGUCA,0.00055 ± 0.01,0.000185 ± 0.014
GGAGAGGAUACUAUACAACCUAGUAGCUCA,0.000691 ± 0.0084,0.00102 ± 0.0049
GGAGACCUAUGAUAACAACCUACAUGCUCA,0.00111 ± 0.0063,0.000361 ± 0.013
GGAGACCUAUGAUAUGUUGCUUCUACCACA,0.000338 ± 0.019,0.000446 ± 0.013
GGAGACCUAUGAAUACAACCUACUUCCUGA,0.00104 ± 0.0049,0.000219 ± 0.0088
GGAGUGCAUACUAUACAACCUACUACCUGA,0.09 ± 0.011,0.513 ± 0.077
GGAGACCUAACUAUACAACCAACUUCCUCA,0.00214 ± 0.0076,0.00178 ± 0.0065
GGAGACCUAUGAUAUGUUGCUAGUACCUCA,0.000351 ± 0.014,0.000386 ± 0.012
GGAGACCUAUGAUAACAACCUACAUCCUCA,0.00287 ± 0.0034,0.00054 ± 0.0046
GGAGACCUAUGAUAUGUUGCUAGUACCACA,0.000389 ± 0.015,0.000567 ± 0.0072
GGAGACCUAUGAUUACAUCCAACUACCUCA,0.00328 ± 0.003,0.000295 ± 0.0066
GGAGACCUAUGAUAUGUUCGUACUUCCUCA,0.000222 ± 0.026,0.000261 ± 0.027
GGAGACCUAACUAUACAACCUAUACCUCA,0.00138 ± 0.0077,0.00012 ± 0.033
GGAGUGGAUACUAUACAACCUACUAGCACA,0.000822 ± 0.0055,0.000709 ± 0.0059
GGAGACCUAUGAUAUGUACGCUACUACCUCA,0.000713 ± 0.0087,0.000928 ± 0.0045

# Not a retest: an excerpt of the list.
Sequence,pre-steady-state target cleavage rate [1],pre-steady-state target cleavage rate [2]
GGAGACCUAUGAUAUCAACGUACUACGUCA,0.00055 ± 0.01,0.000185 ± 0.014
GGAGAGGAUACUAUACAACCUAGUAGCUCA,0.000691 ± 0.0084,0.00102 ± 0.0049
